Drawing on article PMC3539332, this text covers binding for 2 substances.

No constants are given. Whether binding was seen depends on the method and setting. Binding seen in cells or lysates may run through a third protein. These calls come from enrichment with a bait or labelling near it, and not all partners need be listed. Sequences can lack the tags named with a protein.

In this assay the target is T1, GST-Arfrp1 (Q79L), dominant active form, GTPγS-loaded (UniProt Q13795).
T1 sequence: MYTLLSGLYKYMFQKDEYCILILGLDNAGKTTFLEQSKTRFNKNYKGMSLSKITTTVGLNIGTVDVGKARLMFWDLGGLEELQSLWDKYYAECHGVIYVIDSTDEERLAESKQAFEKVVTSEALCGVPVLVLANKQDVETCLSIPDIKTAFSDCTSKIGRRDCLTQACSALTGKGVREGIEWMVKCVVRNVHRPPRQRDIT
Put plainly: affinity purification with mass spectrometry; GST-Arfrp1 (50 μg) on glutathione beads loaded with GDP or GTPγS; bovine brain cytosol, 4°C overnight, 20 mM Hepes pH 7.4, 100 mM KCl, 5 mM MgCl2, 0.1% TX100; washed with 500 mM KCl; eluate on SDS-PAGE, silver stained, gel slices to mass spectrometry; only the target purified.

For the substance “serine/threonine-protein kinase (A-Raf) (enzyme)”, the binding result is recorded as “binds”.
The value for γ1-adaptin was “binds”.
